Measured values reported in patent US9833520B2, “Labeled, non-peptidic, multivalent integrin antagonist compounds; methods for synthesis and uses thereof” (The Methodist Hospital Research Institute, priority 2011, dated 2017).
At least one compound was matched to its structure with a doubt left. Some entries share one result that the patent states for a list of compounds.

Tests used:
B16F10 cells = test: In vitro cytotoxicity (MTT) assay, B16F10; format: cell-based, mouse; settings: B16F10, 10 μg/mL, 1-day exposure
Experimental: For cell cytotoxicity assay, the cells were then seeded into 96-well flat-bottomed tissue-culture plates at 1×10^4 cells/well and incubated for 24 hr in humidified atmosphere of 5% (vol./vol.) CO2 at 37° C. in the presence of each compound. The multivalent compound (monomer, dimer, and trimer) sample solutions were diluted with culture medium (1% FBS added) to obtain concentrations in the range of 0.1-100 μg/mL for each compound. The cytotoxic effects of monomer, dimer and trimer compounds were evaluated by adding 100 μL of each sample in 100 μL culture medium to each well. After 24-hrs' incubation, cell viability was evaluated by mitochondrial conversion of 3-(4,5-dimethylthiazol-2-yl)-2,5-diphenyl tetrazolium bromide (MTT assay) (Allison et al., 1985).
Mouse melanoma B16F10 cells (Caliper.CO,) and human melanoma M21 cells were maintained in RPMI 1640 (Caliper) containing 10% (vol./vol.) fetal bovine serum (Invitrogen, Ontario, Canada), 100 U/mL penicillin G, and 100 μg/mL streptomycin for general cell growing condition. […] The cytotoxic effects of monomer, dimer and trimer compounds solution were evaluated by adding a mixture of 100 μL of each sample and 100 μL of culture medium to each well. After 24-hr or 72-hr incubation, cell viability was evaluated by mitochondrial conversion of 3-(4,5-dimethylthiazol-2-yl)-2,5-diphenyl tetrazolium bromide (MTT assay).

B16F10 melanoma tumor = test: In vivo antitumor efficacy in B16F10 melanoma tumor-bearing mice; settings: 30 mg/kg, endpoint; listed as IA-dimer
Experimental: All animal procedures were approved by appropriate Animal Care and Use Committee. The therapeutic test for antitumor efficacy of IA multivalent compounds was evaluated using tumor-bearing mice, which were prepared by bilateral subcutaneous injection in the thighs of nu/nu female mice (6 weeks old; 20-25 g). The mouse melanoma cancer cell line B16F10 was obtained from Caliper and tested negative for rodent pathogens. The cells were maintained in vitro as described above. The mice were inoculated with suspensions of 1×10^6 B16F10 cells in 100 μL complete medium (10% FBS added). […] The tumor size was calculated as a×b^2/2, where ‘a’ is the largest and ‘b’ the smallest diameter. In addition, the weight of the mice and the tumors were recorded after harvesting. […]
All animal procedures were approved by the appropriate regulatory agencies. The therapeutic test for antitumor efficacy of IA multivalent compounds was evaluated using tumor-bearing mice that were prepared by the subcutaneous injection in the dorsa of nu/nu female mice (6 weeks old; 20-25 g). […] The tumor size was calculated as: a×b2/2, where a is the largest and b the smallest diameter.

Row | SMILES | cell viability (B16F10 cells) | reduction in tumor mass compared to control (B16F10 melanoma tumor)
1 | NCCS(=O)(=O)N[C@@H](CNC(=O)c1ccc(OCCNC2=NCCCN2)cc1)C(=O)O [IA, 4-[2-(3,4,5,6-tetrahydropyrimidine-2-ylamino)ethyloxy]benzoyl-2-(S)-aminoethylsulfonyl-amino-β-alanine] | more than 99% | –
2 | NC(CCCCCC(=O)NCCS(=O)(=O)N[C@@H](CNC(=O)c1ccc(OCCNC2=NCCCN2)cc1)C(=O)O)C(=O)NCCS(=O)(=O)N[C@@H](CNC(=O)c1ccc(OCCNC2=NCCCN2)cc1)C(=O)O (stereo partly drawn) [bivalent IA] | more than 99% | 49 t 8%
